Laboratory results reported in PMC9016894, “MdMYB10 affects nitrogen uptake and reallocation by regulating the nitrate transporter MdNRT2.4-1 in red-fleshed apple”.
Construct, isoform or probe ends are uncertain for at least one entry. For some of these results: Negatives hold for the conditions tested. At least one verdict was read from the data and is not stated in words by the source. Where a protein sequence is shown, tags need not be part of it.

How the values were obtained:
Assay in all cases: EMSA
AtPAP2-HIS (Arabidopsis) = molecular target: T1, AtPAP2-HIS (Arabidopsis) (UniProt Q9ZTC3); conditions: not stated (EMSA as described by Xie et al. [40]); recombinant protein; protein details: His
T1 sequence (looked up, limits assumed): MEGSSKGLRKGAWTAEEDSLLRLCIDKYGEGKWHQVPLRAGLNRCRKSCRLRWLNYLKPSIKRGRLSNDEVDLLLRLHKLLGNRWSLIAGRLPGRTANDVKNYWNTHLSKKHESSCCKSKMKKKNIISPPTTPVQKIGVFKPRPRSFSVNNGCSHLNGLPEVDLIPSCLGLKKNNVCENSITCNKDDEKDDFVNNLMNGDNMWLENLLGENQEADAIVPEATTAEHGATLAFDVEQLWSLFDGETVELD

AtPAP1-HIS (Arabidopsis) = molecular target: T2, AtPAP1-HIS (Arabidopsis) (UniProt Q9FE25); conditions: not stated (EMSA as described by Xie et al. [40]); recombinant protein; protein details: His
T2 sequence (looked up, limits assumed): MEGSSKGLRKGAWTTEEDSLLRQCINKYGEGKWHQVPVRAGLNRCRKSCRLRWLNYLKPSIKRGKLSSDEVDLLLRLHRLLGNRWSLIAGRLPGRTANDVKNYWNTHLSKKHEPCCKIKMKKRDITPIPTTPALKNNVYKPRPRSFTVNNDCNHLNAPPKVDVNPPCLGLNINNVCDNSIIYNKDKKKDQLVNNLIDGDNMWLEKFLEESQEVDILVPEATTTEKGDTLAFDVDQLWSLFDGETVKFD

[1] = molecular target: T3, MdMYB10-HIS (also printed MdMYB1-HIS) (UniProt E2RZU2); conditions: not stated (EMSA as described by Xie et al. [40]); recombinant protein; protein details: His (pET32a)
T3 sequence (looked up, limits assumed): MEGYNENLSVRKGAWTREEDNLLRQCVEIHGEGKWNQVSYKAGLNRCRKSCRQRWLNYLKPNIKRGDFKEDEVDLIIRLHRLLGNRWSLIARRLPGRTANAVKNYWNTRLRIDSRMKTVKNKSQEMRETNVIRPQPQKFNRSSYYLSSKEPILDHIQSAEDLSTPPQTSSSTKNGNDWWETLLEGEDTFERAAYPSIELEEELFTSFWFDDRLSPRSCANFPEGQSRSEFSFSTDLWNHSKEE

Sequence	binding result (AtPAP2-HIS (Arabidopsis))	binding result (AtPAP1-HIS (Arabidopsis))	binding result [1]
GGTTTTTATTTGTGAAGGTACAACTGTTATTGCTGTTACAATCTT (double strand) [AtNRT2.4(MBS-I)]	binds	binds	
TGAAATTAAGAAAACAAGAGCAGTTGCAACCTTCCCAAAAGAAAAA (double strand) [MdNRT2.7-2(MBS-1)]			no binding
AAAATCAATCACGCTAAGATCAGTTGATAACGTACTTGAGTGGCC (double strand) [MdNRT2.5-2(MBS-2)]			no binding
ACCTCACCGACACAGACACCGGTCACGCAGGCACCGCTGCATTCC (double strand) [MdNRT2.5-2(MBS-1)]			no binding
AGAATAGACTTGATAACTCGCAGTTGATAATGCCTCATGGTACAA (double strand) [AtNRT2.4(MBS-III)]	binds		
TGTGTGGATAACCGAATATATAACTGTGATGAGTACAAGCAAAAGA (double strand) [MdNRT2.7-2(MBS-2)]			no binding
